The list does not hold the whole screen: it gathers tests that were run many times, whatever their T/C, doses with no T/C, and many T/C values between a quarter and a half above the control. Other doses and runs of a compound stand elsewhere. T/C is the treated group as % of the vehicle group. Some doses have a count of surviving animals in place of a T/C: the source holds a T/C of zero for them, seemingly a mark for toxic or unscored doses. Some doses without a T/C left all or most animals alive at the check, yet need not have been tolerated: the source hardly ever lists a survival T/C far under the control, and the zero likely stands for such cases as well. Survivors were counted at the toxicity check, usually on the fifth day, unless a day is given; later deaths do not show. Schedules are NCI's codes, read here as Q, the interval in days (D) or hours (H), X, the number of doses. Where survival is the endpoint, this PubChem deposit counts one and a half times the control or more as active, and values a quarter to a half above the control carry no call in these data; other NCI protocols may use other cut-offs. Some T/C values are followed by the survivors on the day toxicity was checked, most often the fifth; where none is given, no animal had died by that day. Some doses were run more than once; their values stand side by side, smallest first.
System: P388 leukemia ip, CD2F1 mice, survival T/C
Test: NCI In Vivo Anticancer Drug Screen. Data for tumor model P388 Leukemia (intraperitoneal) in CD2F1 (CDF1) mice
Conditions: T/C endpoint: median survival time, higher T/C = longer survival
[1] = dose: 100.0 mg/kg/injection, schedule: Q01DX005 (ip), vehicle: Klucel (hydroxypropylcellulose) (HPC)
[2] = dose: 200.0 mg/kg/injection, schedule: Q01DX005 (ip), vehicle: Klucel (hydroxypropylcellulose) (HPC)
[3] = dose: 50.0 mg/kg/injection, schedule: Q01DX009 (ip), vehicle: saline with Tween-80
[4] = dose: 100.0 mg/kg/injection, schedule: Q01DX009 (ip), vehicle: saline with Tween-80
[5] = dose: 200.0 mg/kg/injection, schedule: Q01DX009 (ip), vehicle: saline with Tween-80
[6] = dose: 100.0 mg/kg/injection, schedule: Q01DX009 (ip), vehicle: distilled water + Tween-80
[7] = dose: 400.0 mg/kg/injection, schedule: Q01DX009 (ip), vehicle: saline with Tween-80
[8] = dose: 200.0 mg/kg/injection, schedule: Q01DX005 (ip), vehicle: saline

## COc1ccc(CC2C(=O)NC(C)C(=O)N(C)C3Cc4ccc(cc4)Oc4cc(ccc4O)CC(C(=O)NC(C)C(=O)NC(C)C(=O)N2C)N(C)C3=O)cc1 (stereo not given)
dose: 0.25 mg/kg/injection, schedule: Q01DX009 (ip), vehicle: saline with Tween-80
  T/C: 141 and 142 % of control [5 of 6 alive]
dose: 0.75 mg/kg/injection, schedule: Q04DX003 (ip), vehicle: other
  T/C: 140 % of control
dose: 1.0 mg/kg/injection, schedule: Q01DX009 (ip), vehicle: saline with Tween-80
  T/C: 148 % of control
dose: 1.5 mg/kg/injection, schedule: Q03HX024 (ip), vehicle: other
  survivor count: 4 of 10
dose: 2.25 mg/kg/injection, schedule: Q01DX001 (ip), vehicle: other
  T/C: 134 % of control
dose: 2.25 mg/kg/injection, schedule: Q03HX008 (ip), vehicle: other
  survivor count: 0 of 10
dose: 3.0 mg/kg/injection, schedule: Q03HX024 (ip), vehicle: other
  survivor count: 0 of 10
dose: 4.5 mg/kg/injection, schedule: Q01DX001 (ip), vehicle: other
  T/C: 135 % of control
dose: 4.5 mg/kg/injection, schedule: Q03HX008 (ip), vehicle: other
  survivor count: 0 of 10
dose: 6.0 mg/kg/injection, schedule: Q03HX024 (ip), vehicle: other
  survivor count: 0 of 10
dose: 8.0 mg/kg/injection, schedule: Q01DX009 (ip), vehicle: saline with Tween-80
  T/C: 146 % of control
dose: 9.0 mg/kg/injection, schedule: Q01DX001 (ip), vehicle: other
  T/C: 147 % of control
dose: 9.0 mg/kg/injection, schedule: Q03HX008 (ip), vehicle: other
  survivor count: 0 of 10
dose: 14.4 mg/kg/injection, schedule: Q01DX005 (ip), vehicle: other
  survivor count: 2 of 10
dose: 14.4 mg/kg/injection, schedule: Q01DX005 (iv), vehicle: other
  survivor count: 1 of 10
dose: 16.0 mg/kg/injection, schedule: Q01DX009 (ip), vehicle: other
  survivor count: 0 of 10
dose: 18.0 mg/kg/injection, schedule: Q01DX001 (ip), vehicle: other
  survivor count: 6 of 10
dose: 18.0 mg/kg/injection, schedule: Q01DX001 (iv), vehicle: other
  T/C: 125 % of control
dose: 18.0 mg/kg/injection, schedule: Q03HX008 (ip), vehicle: other
  survivor count: 0 of 10
dose: 24.0 mg/kg/injection, schedule: Q04DX003 (ip), vehicle: other
  survivor count: 3 of 10
dose: 28.8 mg/kg/injection, schedule: Q01DX005 (ip), vehicle: other
  survivor count: 0 of 10
dose: 36.0 mg/kg/injection, schedule: Q01DX001 (ip), vehicle: other
  survivor count: 1 of 10
dose: 36.0 mg/kg/injection, schedule: Q01DX001 (iv), vehicle: other
  survivor count: 1 of 10
dose: 48.0 mg/kg/injection, schedule: Q04DX003 (ip), vehicle: other
  survivor count: 0 of 10
dose: 64.0 mg/kg/injection, schedule: Q01DX009 (oral), vehicle: other
  survivor count: 3 of 10
dose: 72.0 mg/kg/injection, schedule: Q01DX001 (ip), vehicle: other
  survivor count: 0 of 10

## CCN=C(c1ccc(NC(=O)c2ccc(C(=O)Nc3ccc(C(=NCC)N(CC)CC)cc3)cc2)cc1)N(CC)CC
dose: 3.12 mg/kg/injection, schedule: Q01DX005 (ip), vehicle: Klucel (hydroxypropylcellulose) (HPC)
  survivor count: 0 of 6
dose: 6.25 mg/kg/injection, schedule: Q01DX005 (ip), vehicle: Klucel (hydroxypropylcellulose) (HPC)
  survivor count: 0 of 6
dose: 12.5 mg/kg/injection, schedule: Q01DX005 (ip), vehicle: Klucel (hydroxypropylcellulose) (HPC)
  survivor count: 0 of 6
dose: 25.0 mg/kg/injection, schedule: Q01DX005 (ip), vehicle: Klucel (hydroxypropylcellulose) (HPC)
  survivor count: 0 of 6
dose: 50.0 mg/kg/injection, schedule: Q01DX005 (ip), vehicle: Klucel (hydroxypropylcellulose) (HPC)
  survivor count: 0 of 6
[1]
  survivor count: 0 of 6
[2]
  survivor count: 0 of 6

## Cn1c(=O)c2c(ncn2-c2ccc(N)cn2)n(C)c1=O
[1]
  survivor count: 5 of 5
[2]
  survivor count: 5 of 5

## O=S(=O)(c1ccc(Cl)c(Cl)c1)N(c1cccc(C(F)(F)F)c1)S(=O)(=O)c1ccc(Cl)c(Cl)c1
[3]
  survivor count: 6 of 6
[4]
  survivor count: 6 of 6
[5]
  survivor count: 6 of 6

## Oc1c(Br)cc(Br)cc1/C=N/NC(=S)N/N=C/c1cc(Br)cc(Br)c1O
dose: 50.0 mg/kg/injection, schedule: Q01DX009 (ip), vehicle: distilled water + Tween-80
  T/C: 137 % of control
[6]
  T/C: 144 % of control
  survivor count: 2 of 6
dose: 200.0 mg/kg/injection, schedule: Q01DX009 (ip), vehicle: distilled water + Tween-80
  survivor count: 3 of 6
dose: 400.0 mg/kg/injection, schedule: Q01DX009 (ip), vehicle: distilled water + Tween-80
  survivor count: 1 of 6

## Nc1nc(Cl)c2[nH]cnc2n1
[5]
  survivor count: 2 of 6
[7]
  survivor count: 0 of 6

## [Br][Sn]([Br])([CH2]CC[CH2][Sn]([Br])([Br])[c]1ccccc1)[c]1ccccc1
[1]
  survivor count: 0 of 6
[2]
  survivor count: 0 of 6

## CNC(C(=O)OC(C)(C)C)C(C)C (stereo not given)
[8]
  survivor count: 2 of 6

## Cc1ccc(N2CCN(C(=O)C3=Cc4ccccc4OC3)CC2)cc1C
dose: 400.0 mg/kg/injection, schedule: Q04DX003 (ip), vehicle: Klucel (hydroxypropylcellulose) (HPC)
  survivor count: 1 of 6

## Cc1ccc(N=Nc2ccc(N(CCCl)CCCl)cc2C)c(C(=O)O)c1
dose: 6.25 mg/kg/injection, schedule: Q01DX009 (ip), vehicle: saline with Tween-80
  T/C: 132 and 142 % of control
dose: 25.0 mg/kg/injection, schedule: Q01DX009 (ip), vehicle: saline with Tween-80
  T/C: 142 % of control
[3]
  survivor count: 6 of 6
[4]
  survivor count: 5 of 6
[5]
  survivor count: 0 of 6

## COCC/C(COC)=N\N=C(/CCOC)COC
[5]
  survivor count: 6 of 6
[7]
  survivor count: 0 of 6

## COC1=CC(=O)C(Cl)=C(OC)C1=O
[3]
  survivor count: 0 of 6
[4]
  survivor count: 0 of 6
[5]
  survivor count: 0 of 6

## NC(=O)c1cccn1Cc1ccccc1SSc1ccccc1Cn1cccc1C(N)=O
dose: 240.0 mg/kg/injection, schedule: Q01DX005 (ip), vehicle: saline with Tween-80
  survivor count: 6 of 6

## NC(CS(=O)(=O)O)C(=O)O (stereo not given)
dose: 400.0 mg/kg/injection, schedule: Q04DX002 (ip), vehicle: saline
  survivor count: 6 of 6

## COc1cc2cccnc2c2[nH]c(=O)c3c(c12)CCC3
dose: 400.0 mg/kg/injection, schedule: Q04DX003 (ip), vehicle: saline
  survivor count: 2 of 6

## CN(C)CCC(c1ccccc1)C(CO)c1ccccc1 (stereo not given)
dose: 400.0 mg/kg/injection, schedule: Q01DX001 (ip), vehicle: Klucel (hydroxypropylcellulose) (HPC)
  survivor count: 1 of 6

## CCCCCCC[CH2][Sn](=[O])[CH2]CCCCCCC
[4]
  survivor count: 6 of 6
[5]
  survivor count: 1 of 6

## Nc1nc(F)nc2c1nnn2C1OC(CO)C(O)C1O (stereo not given)
[8]
  survivor count: 2 of 6

## CC1CCC(C(C)C)C(OC(=O)c2cc[n+](C)cc2)C1 (stereo not given)
[2]
  survivor count: 0 of 6

## CCOc1c(N=Nc2ccccc2Cl)c(C)nn1C(=S)S
dose: 60.0 mg/kg/injection, schedule: Q01DX005 (ip), vehicle: Klucel + Tween-80
  survivor count: 1 of 4
dose: 120.0 mg/kg/injection, schedule: Q01DX005 (ip), vehicle: Klucel + Tween-80
  survivor count: 0 of 6
dose: 240.0 mg/kg/injection, schedule: Q01DX005 (ip), vehicle: Klucel + Tween-80
  survivor count: 0 of 6

## c1cc[c]([Sn]([NH]c2ncnc3[nH]cnc23)([NH]c2ncnc3[nH]cnc23)[c]2ccccc2)cc1
dose: 25.0 mg/kg/injection, schedule: Q01DX009 (ip), vehicle: saline
  T/C: 145 % of control
dose: 50.0 mg/kg/injection, schedule: Q01DX009 (ip), vehicle: Klucel (hydroxypropylcellulose) (HPC)
  T/C: 129 % of control
dose: 50.0 mg/kg/injection, schedule: Q01DX009 (ip), vehicle: saline
  T/C: 141 % of control
dose: 100.0 mg/kg/injection, schedule: Q01DX009 (ip), vehicle: saline
  T/C: 141 % of control
dose: 200.0 mg/kg/injection, schedule: Q01DX009 (ip), vehicle: Klucel (hydroxypropylcellulose) (HPC)
  survivor count: 0 of 6
